Nine substances from US20120115163A1 (published 2012) can be followed below.

One purity is given for all peptides; the source may state it once.

The data set in a line: general procedure: peptide synthesis; Merrifield Boc-Phe resin (0.57 mmol/g), Wang Fmoc-Phe resin (0.76 mmol/g) or 2-chlorotrityl chloride resin (1.5 mmol/g). Particulars: whole synthesis, water/acetonitrile.

As to H-Val-Tyr-Ile-His-Pro-β3hPhe-OH, the “final HPLC purity” value was over 99%. As to H-Val-Tyr-Ile-His-β2hPro-Phe-OH, the “final HPLC purity” value is over 99%. The same measure for H-Val-Tyr-Ile-His-β3hPro-Phe-OH: over 99%.

On to H-Val-Tyr-β2hLeu-His-Pro-Phe-OH, for which the “final HPLC purity” value is over 99%. With H-Val-Tyr-β3hIle-His-Pro-Phe-OH, the “final HPLC purity” value was over 99%.

On to H-Val-β3hTyr-Ile-His-Pro-Phe-OH, for which the “final HPLC purity” value is recorded as over 99%. In the case of H-β2hVal-Tyr-Ile-His-Pro-Phe-OH, the “final HPLC purity” value is recorded as over 99%.

Turning to H-β2hVal-Tyr-Ile-His-Pro-β3hPhe-OH, the “final HPLC purity” value was over 99%.

Consider H-β3hVal-Tyr-Ile-His-Pro-Phe-OH, for which the “final HPLC purity” value is on record as over 99%.
